{"sequences": {"note": "The chains behind the UniProt entries cited, without tags or fusion partners. Where a name states a change or a piece, a line headed by the entry shows the natural chain unless it says otherwise.", "UniProt O00560": "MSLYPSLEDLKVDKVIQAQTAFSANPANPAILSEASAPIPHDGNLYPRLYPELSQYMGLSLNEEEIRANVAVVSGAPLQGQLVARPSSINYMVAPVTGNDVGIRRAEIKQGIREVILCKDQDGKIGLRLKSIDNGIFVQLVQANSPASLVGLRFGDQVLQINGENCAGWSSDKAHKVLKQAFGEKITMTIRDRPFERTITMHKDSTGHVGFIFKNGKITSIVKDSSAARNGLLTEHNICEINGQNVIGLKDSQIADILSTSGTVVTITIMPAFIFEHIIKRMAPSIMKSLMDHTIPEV", "UniProt Q15046": "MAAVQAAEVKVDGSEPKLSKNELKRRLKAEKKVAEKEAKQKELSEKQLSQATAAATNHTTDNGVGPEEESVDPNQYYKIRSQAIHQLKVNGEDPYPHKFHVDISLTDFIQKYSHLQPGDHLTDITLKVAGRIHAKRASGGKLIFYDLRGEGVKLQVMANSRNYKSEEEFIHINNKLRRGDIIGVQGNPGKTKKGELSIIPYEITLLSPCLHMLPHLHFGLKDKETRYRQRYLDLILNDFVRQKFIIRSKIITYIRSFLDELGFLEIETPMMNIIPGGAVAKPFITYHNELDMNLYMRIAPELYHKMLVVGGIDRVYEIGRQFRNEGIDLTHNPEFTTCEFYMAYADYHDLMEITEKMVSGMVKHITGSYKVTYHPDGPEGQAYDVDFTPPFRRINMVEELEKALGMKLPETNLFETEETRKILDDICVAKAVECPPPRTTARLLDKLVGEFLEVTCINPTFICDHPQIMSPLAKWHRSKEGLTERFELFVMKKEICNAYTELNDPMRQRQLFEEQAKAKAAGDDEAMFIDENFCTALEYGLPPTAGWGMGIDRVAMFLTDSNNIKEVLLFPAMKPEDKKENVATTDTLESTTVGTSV"}, "source": "patent US20170073659A1", "about": "“NOVEL LYSYL TRNA SYNTHETASE FRAGMENT AND MICROVESICLES COMPRISING SAME” (Medicinal Bioconvergence Research Center, priority 2014, published 2017)", "key": {"[1]": {"target": "syntenin-1, endogenous in HCT116 cells (Homo sapiens (Human)) (UniProt O00560)", "assay": "anti-syntenin-1 immunoprecipitation from HCT116 lysate, anti-myc western blot (FIG. 3g)"}, "[2]": {"target": "syntenin-1, endogenous in HCT116 cells (Homo sapiens (Human)) (UniProt O00560)", "assay": "immunoprecipitation of syntenin-1, western blot with anti-KRS antibody, with or without Z-VAD-IETD (FIG. 3c)"}, "[3]": {"target": "syntenin-1, endogenous in HCT116 cells (Homo sapiens (Human)) (UniProt O00560)", "assay": "immunoprecipitation of syntenin-1 from HCT116 lysate, western blot with anti-KRS antibody (FIG. 3b legend)"}, "[4]": {"target": "syntenin-1, endogenous in HCT116 cells (Homo sapiens (Human)) (UniProt O00560)", "assay": "immunoprecipitation of syntenin-1 from HCT116 lysate, western blot with anti-KRS antibody (FIG. 3b)"}, "[5]": {"target": "syntenin-1, endogenous in HCT116 cells (Homo sapiens (Human)) (UniProt O00560)", "assay": "immunoprecipitation of syntenin-1, western blot with anti-KRS antibody (FIG. 3c legend)"}}, "note": "Results are given in words; binding and its absence hold for the method and conditions named. Some entries that bind do so weakly or less than the wild type."}
{"substance": "KRS deletion mutant (▴c5(1-592 a.a))-myc (from UniProt Q15046 1-592) (enzyme)", "values": [{"measurement": "binding", "setting": "[1]", "value": "no binding"}]}
{"substance": "lysyl tRNA synthetase (KRS), endogenous in HCT116 cells (from UniProt Q15046 2-597) (enzyme)", "values": [{"measurement": "binding", "setting": "[2]", "value": "binds"}, {"measurement": "binding", "setting": "[3]", "value": "binds"}, {"measurement": "binding", "setting": "[4]", "value": "binds"}, {"measurement": "binding", "setting": "[5]", "value": "binds"}]}
